Source: US11472855, “RNA-binding protein” (Panitch Schwarze Belisario & Nadel LLP)
Where a chain is given by its changes, count along the chain named. Weaker means in comparison with the reference protein, sequence or condition of that experiment. For some of these results: Where a protein sequence is shown, tags need not be part of it.

How the values were obtained:
Experiment in all cases: EMSA
[1] = test system: T1, hPUF_MT(R3→R5, R4→R6); details: purified recombinant protein, label: Alexa680 at 5' and 3', variant of OTS-1511
T1 sequence: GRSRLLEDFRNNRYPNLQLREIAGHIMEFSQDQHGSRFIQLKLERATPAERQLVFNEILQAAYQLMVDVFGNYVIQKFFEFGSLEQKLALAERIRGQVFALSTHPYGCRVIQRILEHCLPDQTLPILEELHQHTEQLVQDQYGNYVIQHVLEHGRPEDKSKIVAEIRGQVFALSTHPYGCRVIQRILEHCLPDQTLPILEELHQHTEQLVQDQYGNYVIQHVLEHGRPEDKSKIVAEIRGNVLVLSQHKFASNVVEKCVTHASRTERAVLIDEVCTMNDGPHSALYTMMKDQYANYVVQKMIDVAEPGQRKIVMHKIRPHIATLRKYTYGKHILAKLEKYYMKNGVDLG

[2] = test system: hPUF_MT(R2_N12C, R3→R5, R4→R6) R2 repeat N12C; details: A=U=C>>G, purified recombinant protein, label: Alexa680 at 5' and 3'
[3] = test system: T2, hPUF_MT(R1_S12N, R3→R5, R4→R6) R1 repeat S12N; details: U>C>>G=A, purified recombinant protein, label: Alexa680 at 5' and 3'
T2 sequence: T1 sequence with S36N

[4] = test system: T3, hPUF_MT(R1_Q16E, R3→R5, R4→R6) R1 repeat Q16E; details: G>>U=C; purified recombinant protein; label: Alexa680 at 5' and 3'; variant of OTS-1511
T3 sequence: T1 sequence with Q40E

[5] = test system: T4, hPUF_MT(R1_Q16R, R3→R5, R4→R6) R1 repeat Q16R; details: C>U>>G>A, purified recombinant protein, label: Alexa680 at 5' and 3'
T4 sequence: T1 sequence with Q40R

[6] = test system: T5, hPUF_MT(1-5-5-5-5-6-7-8); details: weaker than WT; purified recombinant protein; label: Alexa680 at 5' and 3'; variant of OTS-1511
T5 sequence: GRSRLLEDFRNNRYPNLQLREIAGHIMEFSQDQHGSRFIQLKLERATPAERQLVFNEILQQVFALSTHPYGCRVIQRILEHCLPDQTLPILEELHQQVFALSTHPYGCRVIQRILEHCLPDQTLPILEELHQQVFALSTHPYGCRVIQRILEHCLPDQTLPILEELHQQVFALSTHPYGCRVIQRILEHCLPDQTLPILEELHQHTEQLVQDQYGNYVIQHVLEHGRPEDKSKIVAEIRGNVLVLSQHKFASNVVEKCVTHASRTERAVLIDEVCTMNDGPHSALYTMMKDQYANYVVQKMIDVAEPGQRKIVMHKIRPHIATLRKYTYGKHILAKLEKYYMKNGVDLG

[7] = test system: hPUF_MT(R3→R5, R4→R5_R13F, R5_R13F); details: H=Y>R>F=W>K; purified recombinant protein; label: Alexa680 at 5' and 3'; variant of OTS-1511
[8] = test system: T6, hPUF_MT(R3→RC2, R4→RC2, R5→RC2); details: may be weaker than MT(R3→R5, R4→R5); purified recombinant protein; label: Alexa680 at 5' and 3'; variant of OTS-1511
T6 sequence: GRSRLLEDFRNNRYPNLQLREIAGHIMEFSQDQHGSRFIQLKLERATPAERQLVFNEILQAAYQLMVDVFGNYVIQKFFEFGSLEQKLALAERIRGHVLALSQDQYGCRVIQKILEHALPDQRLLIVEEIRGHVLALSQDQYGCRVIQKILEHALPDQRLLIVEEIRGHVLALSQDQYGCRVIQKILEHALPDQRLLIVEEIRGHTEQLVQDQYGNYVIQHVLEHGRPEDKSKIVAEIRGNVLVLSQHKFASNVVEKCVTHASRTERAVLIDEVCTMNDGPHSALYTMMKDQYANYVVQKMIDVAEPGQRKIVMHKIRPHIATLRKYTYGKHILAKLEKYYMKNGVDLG

[9] = test system: T7, hPUF_MT(R3→RC, R4→RC, R5→RC); details: may be weaker than MT(R3→R5, R4→R5); purified recombinant protein; label: Alexa680 at 5' and 3'; variant of OTS-1511
T7 sequence: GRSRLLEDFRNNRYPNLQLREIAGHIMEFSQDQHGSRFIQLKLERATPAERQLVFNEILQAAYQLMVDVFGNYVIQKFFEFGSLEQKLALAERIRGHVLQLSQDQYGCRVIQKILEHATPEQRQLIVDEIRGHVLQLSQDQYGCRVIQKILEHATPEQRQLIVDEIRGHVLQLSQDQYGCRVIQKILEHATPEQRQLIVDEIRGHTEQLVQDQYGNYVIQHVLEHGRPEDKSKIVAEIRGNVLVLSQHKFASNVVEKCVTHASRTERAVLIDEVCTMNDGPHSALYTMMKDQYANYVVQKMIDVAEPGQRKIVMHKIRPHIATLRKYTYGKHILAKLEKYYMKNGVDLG

[10] = test system: hPUF_MT(R3→R5, R4→R5_R13K, R5_R13K); details: H=Y>R>F=W>K; purified recombinant protein; label: Alexa680 at 5' and 3'; variant of OTS-1511
[11] = test system: hPUF_MT(R3→R5, R4→R5_R13W, R5_R13W); details: H=Y>R>F=W>K; Example 5-2 states W strongest; purified recombinant protein; label: Alexa680 at 5' and 3'; variant of OTS-1511
[12] = molecular target: T8, hPUF_MT(R6_Y13W) (UniProt Q14671); details: Tyr optimal for U-A; purified recombinant protein; label: Alexa680 at 5' and 3'
T8 sequence: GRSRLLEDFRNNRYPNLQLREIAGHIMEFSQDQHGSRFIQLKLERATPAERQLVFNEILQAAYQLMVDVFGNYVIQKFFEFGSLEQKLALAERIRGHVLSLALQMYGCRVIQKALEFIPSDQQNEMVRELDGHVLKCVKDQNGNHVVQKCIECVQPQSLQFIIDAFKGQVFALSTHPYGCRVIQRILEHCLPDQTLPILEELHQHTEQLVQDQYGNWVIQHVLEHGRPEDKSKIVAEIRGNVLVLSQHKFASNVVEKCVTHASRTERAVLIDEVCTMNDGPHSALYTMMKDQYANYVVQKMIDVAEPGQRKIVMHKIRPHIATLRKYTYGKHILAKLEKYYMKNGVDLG

[13] = molecular target: hPUF_MT(R5_R13K) (UniProt Q14671); details: Arg optimal for A-U; purified recombinant protein; label: Alexa680 at 5' and 3'
[14] = molecular target: T9, hPUF_MT(R6_Y13F) R6 repeat Y13F (UniProt Q14671); details: Tyr optimal for U-A; purified recombinant protein; label: Alexa680 at 5' and 3'
T9 sequence: T8 sequence with W217F

[15] = test system: T10, hPUF_MT(1-6-5-6-5-6-7-8); details: printed "Kd: 50 to 10 nM", about one-tenth of WT; 4 C, 100 mM NaCl; purified recombinant protein; label: Alexa680 at 5' and 3'
T10 sequence: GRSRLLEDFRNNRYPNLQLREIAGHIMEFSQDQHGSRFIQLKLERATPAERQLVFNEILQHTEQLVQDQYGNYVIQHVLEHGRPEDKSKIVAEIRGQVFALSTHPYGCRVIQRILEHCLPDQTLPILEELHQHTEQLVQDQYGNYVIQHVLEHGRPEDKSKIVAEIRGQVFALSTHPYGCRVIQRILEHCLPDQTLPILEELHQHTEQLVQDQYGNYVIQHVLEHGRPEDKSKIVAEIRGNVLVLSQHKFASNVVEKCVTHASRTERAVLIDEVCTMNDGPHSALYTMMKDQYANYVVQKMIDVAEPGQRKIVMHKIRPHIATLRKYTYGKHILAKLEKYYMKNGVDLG

[16] = molecular target: T11, hPUF_MT(R6_Y13H) R6 repeat Y13H (UniProt Q14671); details: Tyr optimal for U-A; purified recombinant protein; label: Alexa680 at 5' and 3'
T11 sequence: T8 sequence with W217H

Sequence: CCAGAAUUGUAUACAUUCG [OTS-2025]
- binding result ([1]; U>>C): binds more weakly
- binding result ([2]; variant of OTS-1511): binds more weakly

Sequence: CCAGAAUUGUAUAUCUUCG [OTS-2021]
- binding result ([3]; variant of OTS-1511): binds more weakly
- binding result [4]: binds more weakly

Sequence: CCAGAAUUGUAUAUGUUCG [OTS-2020]
- binding result ([1]; U=C>A>G at R1 position): binds more weakly
- binding result ([5]; variant of OTS-1511): binds more weakly
- binding result ([3]; variant of OTS-1511): binds more weakly

Sequence: CCAGAAUUGUAAAAAUUCG [OTS-1818]
- binding result [6]: binds more weakly

Sequence: CCAGAAUUGUAAAUAUUCG [OTS-1759]
- binding result [7]: binds more weakly
- binding result [8]: binds more weakly
- binding result [9]: binds more weakly
- binding result [10]: binds more weakly
- binding result [11]: binds more weakly

Sequence: CCAGAAUUGUAUAUAUUCG [OTS-1511]
- binding result [12]: binds more weakly
- binding result [13]: binds more weakly
- binding result [5]: binds more weakly
- binding result [14]: binds more weakly
- binding result [15]: binds more weakly
- binding result [3]: binds more weakly
- binding result [16]: binds more weakly
- binding result [2]: binds more weakly

Sequence: CCAGAAUUGUAUAAAUUCG [OTS-2023]
- binding result ([2]; weakest of R2 variants, variant of OTS-1511): binds more weakly

Sequence: CCAGAAUUGUAUAUUUUCG [OTS-2022]
- binding result ([5]; variant of OTS-1511): binds more weakly
- binding result [4]: binds more weakly

Sequence: CCAGAAUUGUAUAGAUUCG [OTS-2024]
- binding result ([2]; variant of OTS-1511): binds more weakly
